Results from article PMC11316058.
These are yes or no findings as the source states them, for the method shown. Binding seen in cells or lysates may run through a third protein.

The chains behind the UniProt entries cited, without tags or fusion partners. Where a name states a change or a piece, a line headed by the entry shows the natural chain unless it says otherwise. A line that says so, or that is headed by a name, gives the form on record, which may keep a tag or linker. Residues count along the entry.
UniProt O95433: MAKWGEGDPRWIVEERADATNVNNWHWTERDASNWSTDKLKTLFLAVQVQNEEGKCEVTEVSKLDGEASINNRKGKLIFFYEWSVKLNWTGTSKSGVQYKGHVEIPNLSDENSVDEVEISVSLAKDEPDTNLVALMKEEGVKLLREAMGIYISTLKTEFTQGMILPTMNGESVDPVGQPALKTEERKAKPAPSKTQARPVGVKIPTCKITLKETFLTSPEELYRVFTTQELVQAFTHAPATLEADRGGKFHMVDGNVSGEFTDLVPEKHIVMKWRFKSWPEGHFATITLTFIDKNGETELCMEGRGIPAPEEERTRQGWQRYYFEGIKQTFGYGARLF
Ahsa1^Δ20 with a C-terminal myc tag: residues 21-338 of O95433
Ahsa1^Δ27 with a C-terminal myc tag: residues 28-338 of O95433
UniProt P04150: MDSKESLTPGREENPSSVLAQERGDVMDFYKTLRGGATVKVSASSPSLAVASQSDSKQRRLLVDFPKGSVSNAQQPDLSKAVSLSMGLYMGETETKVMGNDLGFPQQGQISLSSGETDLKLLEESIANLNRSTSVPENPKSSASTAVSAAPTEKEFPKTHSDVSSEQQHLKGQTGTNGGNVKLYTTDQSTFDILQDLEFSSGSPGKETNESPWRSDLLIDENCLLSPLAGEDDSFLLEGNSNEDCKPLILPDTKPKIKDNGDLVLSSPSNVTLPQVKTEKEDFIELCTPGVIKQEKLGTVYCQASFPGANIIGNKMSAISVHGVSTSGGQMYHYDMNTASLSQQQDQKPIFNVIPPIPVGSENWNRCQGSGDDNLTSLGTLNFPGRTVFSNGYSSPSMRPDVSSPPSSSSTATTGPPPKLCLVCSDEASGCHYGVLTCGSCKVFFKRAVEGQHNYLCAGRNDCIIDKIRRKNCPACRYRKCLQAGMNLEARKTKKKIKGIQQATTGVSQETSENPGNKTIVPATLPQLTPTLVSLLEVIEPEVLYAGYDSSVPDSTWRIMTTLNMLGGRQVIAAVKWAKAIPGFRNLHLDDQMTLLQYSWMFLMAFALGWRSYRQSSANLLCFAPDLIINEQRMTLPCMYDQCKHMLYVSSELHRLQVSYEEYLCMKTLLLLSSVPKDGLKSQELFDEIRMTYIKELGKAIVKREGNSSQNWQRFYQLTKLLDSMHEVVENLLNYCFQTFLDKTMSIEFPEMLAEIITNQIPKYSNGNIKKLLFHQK

Key:
Test in all cases: co-IP; MDA-MB-231 cells transiently transfected with myc-tagged Ahsa1 constructs; lysates (50 mM HEPES pH 7.4, 100 mM potassium acetate, 5 mM MgCl2, 20 mM sodium molybdate, 1% TX-100, 20% glycerol) incubated with anti-c-Myc magnetic beads at 4 °C; blots for endogenous Hsp90 and glucocorticoid receptor
[1] = target: Ahsa1^Δ20 with a C-terminal myc tag (human) (UniProt O95433)
[2] = target: Ahsa1^Δ27 with a C-terminal myc tag (human) (UniProt O95433)
[3] = target: Ahsa1^E67K with a C-terminal myc tag (human) (UniProt O95433)

Measured: binding

glucocorticoid hormone receptor (endogenous, MDA-MB-231 cells) (from UniProt P04150 1-777)
no binding: all assays above
